From article PMC10762069
Results are given in words; binding and its absence hold for the method and conditions named. Binding seen in cells or lysates may run through a third protein. Here binding means that the protein was enriched with, or labelled near, the bait; the list need not be complete. Where a sequence is shown, tags or fusion partners need not be part of it.

By UniProt entry, the sequences of proteins in these tests, tags left out.
UniProt O35129: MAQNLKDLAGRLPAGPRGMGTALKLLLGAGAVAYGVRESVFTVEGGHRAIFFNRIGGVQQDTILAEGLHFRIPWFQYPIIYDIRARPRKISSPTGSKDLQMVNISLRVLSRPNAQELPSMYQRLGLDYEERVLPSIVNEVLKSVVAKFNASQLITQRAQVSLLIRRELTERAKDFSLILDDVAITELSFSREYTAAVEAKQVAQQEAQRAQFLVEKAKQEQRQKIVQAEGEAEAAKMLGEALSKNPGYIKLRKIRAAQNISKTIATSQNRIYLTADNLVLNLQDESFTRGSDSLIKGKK

Target: T1, His-tagged GCA (grancalcin) (UniProt Q8VC88)
T1 sequence: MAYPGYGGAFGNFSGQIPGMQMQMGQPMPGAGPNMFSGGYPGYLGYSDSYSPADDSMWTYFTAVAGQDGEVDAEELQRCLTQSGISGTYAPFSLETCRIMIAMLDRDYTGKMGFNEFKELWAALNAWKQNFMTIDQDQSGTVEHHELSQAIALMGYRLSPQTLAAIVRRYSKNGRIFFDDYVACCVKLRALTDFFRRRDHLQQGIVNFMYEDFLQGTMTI
Assay: affinity purification with mass spectrometry; cytomembrane proteins of differentiated 3T3-L1 adipocytes incubated with His-tagged GCA; pulled down by nickel beads; mass spectrometry; only the target purified

- binding: binds
Substance: Prohibitin-2 (PHB2), endogenous in 3T3-L1 adipocytes (from UniProt O35129 1-299)
